The list shows only some results of the screen, not a fair sample: it gathers some chemical classes. Not every dose and run of a compound is shown. T/C gives the treated animals as a percentage of the vehicle group. Some entries give survivors of the animals treated and no T/C: the source files T/C as zero there, which appears to mark a toxic dose or a test without result, not a measured value. Some doses without a T/C left all or most animals alive at the check, yet need not have been tolerated: the source hardly ever lists a survival T/C far under the control, and the zero likely stands for such cases as well. Survivors were counted at the toxicity check, usually on the fifth day, unless a day is given; later deaths do not show. Schedules are NCI's codes, read here as Q, the interval in days (D) or hours (H), X, the number of doses. Some schedules carry Z or #; the key to these is not given. Signs of the kind (2×) give the number of equal values in this list. Where survival is the endpoint, this PubChem deposit counts one and a half times the control or more as active, and values a quarter to a half above the control carry no call in these data; other NCI protocols may use other cut-offs. Some entries were tested several times; their values stand side by side, smallest first. Some T/C values are followed by the survivors on the day toxicity was checked, most often the fifth; without a count or a note in brackets, all were alive then.
System: L1210 leukemia ip in BDF1 mice, survival T/C
Experiment: NCI In Vivo Anticancer Drug Screen. Data for tumor model L1210 Leukemia (intraperitoneal) in B6D2F1 (BDF1) mice
Settings: T/C endpoint: mean survival time, higher T/C = longer survival
[1] = dose: 100.0 mg/kg/injection, schedule: Q01DX001 (ip), vehicle: saline
[2] = dose: 200.0 mg/kg/injection, schedule: Q01DX001 (ip), vehicle: saline
[3] = dose: 400.0 mg/kg/injection, schedule: Q01DX001 (ip), vehicle: saline
[4] = dose: 80.0 mg/kg/injection, schedule: Q01DX001 (ip), vehicle: saline
[5] = dose: 100.0 mg/kg/injection, schedule: Q04DX002 (ip), vehicle: saline with Tween-80
[6] = dose: 200.0 mg/kg/injection, schedule: Q04DX002 (ip), vehicle: saline with Tween-80
[7] = dose: 400.0 mg/kg/injection, schedule: Q04DX002 (ip), vehicle: saline with Tween-80

COC1OC(CNCCBr)C2OC(C)(C)OC12 (stereo unspecified)
T/C (dose: 2.25 mg/kg/injection, schedule: Q01DX009 (ip), vehicle: saline): 98 % of control
T/C (dose: 4.5 mg/kg/injection, schedule: Q01DX009 (ip), vehicle: saline): 93 % of control
T/C (dose: 9.0 mg/kg/injection, schedule: Q01DX009 (ip), vehicle: saline): 94 % of control
T/C (dose: 18.0 mg/kg/injection, schedule: Q01DX009 (ip), vehicle: saline): 105 % of control
T/C (dose: 36.0 mg/kg/injection, schedule: Q01DX009 (ip), vehicle: saline): 137 % of control
T/C (dose: 50.0 mg/kg/injection, schedule: Q01DX001 (ip), vehicle: saline): 124 % of control
T/C [1]: 125 % of control
T/C [2]: 124 % of control [5 of 6 alive]
T/C [3]: 96 % of control

COc1cc2c(c3oc(=O)c4c(c13)CCC4=O)[C@@H]1C=CO[C@@H]1O2
T/C (dose: 5.0 mg/kg/injection, schedule: Q01DX001 (ip), vehicle: saline): 103 and 104 % of control
T/C (dose: 10.0 mg/kg/injection, schedule: Q01DX001 (ip), vehicle: saline): 104 and 109 % of control
T/C (dose: 20.0 mg/kg/injection, schedule: Q01DX001 (ip), vehicle: saline): 113 % of control (2×)
T/C (dose: 40.0 mg/kg/injection, schedule: Q01DX001 (ip), vehicle: saline): 113 and 119 % of control
T/C [4]: 122 % of control
survivor count [4]: 2 of 4
T/C (dose: 15.6 micrograms/kg/injection, schedule: Q01DX001 (ip), vehicle: saline): 100 % of control
T/C (dose: 31.3 micrograms/kg/injection, schedule: Q01DX001 (ip), vehicle: saline): 97 % of control
T/C (dose: 62.5 micrograms/kg/injection, schedule: Q01DX001 (ip), vehicle: saline): 97 % of control
T/C (dose: 125.0 micrograms/kg/injection, schedule: Q01DX001 (ip), vehicle: saline): 97 % of control
T/C (dose: 250.0 micrograms/kg/injection, schedule: Q01DX001 (ip), vehicle: saline): 100 % of control
T/C (dose: 500.0 micrograms/kg/injection, schedule: Q01DX001 (ip), vehicle: saline): 97 % of control
T/C (dose: 1000.0 micrograms/kg/injection, schedule: Q01DX001 (ip), vehicle: saline): 92 % of control
T/C (dose: 2000.0 micrograms/kg/injection, schedule: Q01DX001 (ip), vehicle: saline): 100 % of control
T/C (dose: 4000.0 micrograms/kg/injection, schedule: Q01DX001 (ip), vehicle: saline): 105 % of control

O=[As](O)(c1ccc(Cl)cc1)C1CCCCC1O (stereo unspecified)
T/C (dose: 25.0 mg/kg/injection, schedule: Q04DX003 (ip), vehicle: saline with Tween-80): 91 % of control
survivor count (dose: 50.0 mg/kg/injection, schedule: Q04DX003 (ip), vehicle: saline with Tween-80): 6 of 6
survivor count (dose: 100.0 mg/kg/injection, schedule: Q04DX003 (ip), vehicle: saline with Tween-80): 0 of 6 (2×)
survivor count (dose: 200.0 mg/kg/injection, schedule: Q04DX003 (ip), vehicle: saline with Tween-80): 0 of 6
survivor count (dose: 400.0 mg/kg/injection, schedule: Q04DX003 (ip), vehicle: saline with Tween-80): 0 of 6

CCCCN(CCCC)P(=O)(Cl)N(CCCC)CCCC
T/C (dose: 6.25 mg/kg/injection, schedule: Q01DX009 (ip), vehicle: DMSO): 101 % of control
T/C (dose: 12.5 mg/kg/injection, schedule: Q01DX009 (ip), vehicle: DMSO): 99 % of control [2 of 3 alive]
survivor count (dose: 25.0 mg/kg/injection, schedule: Q01DX009 (ip), vehicle: DMSO): 1 of 3
survivor count (dose: 50.0 mg/kg/injection, schedule: Q01DX009 (ip), vehicle: DMSO): 0 of 3
survivor count (dose: 100.0 mg/kg/injection, schedule: Q01DX009 (ip), vehicle: DMSO): 0 of 3
survivor count (dose: 200.0 mg/kg/injection, schedule: Q01DX009 (ip), vehicle: DMSO): 0 of 3

Cc1ccc(CNCCCl)cc1
T/C (dose: 100.0 mg/kg/injection, schedule: Q01DX009 (ip), vehicle: Klucel (hydroxypropylcellulose) (HPC)): 104 % of control
T/C (dose: 100.0 mg/kg/injection, schedule: Q04DX003 (ip), vehicle: Klucel (hydroxypropylcellulose) (HPC)): 115 % of control
T/C (dose: 200.0 mg/kg/injection, schedule: Q01DX009 (ip), vehicle: Klucel (hydroxypropylcellulose) (HPC)): 93 % of control
T/C (dose: 200.0 mg/kg/injection, schedule: Q04DX003 (ip), vehicle: Klucel (hydroxypropylcellulose) (HPC)): 101 % of control
survivor count (dose: 400.0 mg/kg/injection, schedule: Q01DX009 (ip), vehicle: Klucel (hydroxypropylcellulose) (HPC)): 3 of 6
T/C (dose: 400.0 mg/kg/injection, schedule: Q04DX003 (ip), vehicle: Klucel (hydroxypropylcellulose) (HPC)): 92 % of control

CC1CCCCN1.C[CH2][Sn]([Br])([CH2]C)[CH2]C
survivor count [5]: 0 of 3
survivor count [6]: 0 of 3
survivor count [7]: 0 of 3

O=C(SCCCl)c1cc([N+](=O)[O-])cc([N+](=O)[O-])c1
T/C (dose: 10.0 mg/kg/injection, schedule: Q01DX010 (ip), vehicle: other): 95 % of control
T/C (dose: 30.0 mg/kg/injection, schedule: Q01DX010 (ip), vehicle: other): 93 % of control
T/C (dose: 100.0 mg/kg/injection, schedule: Q01DX010 (ip), vehicle: other): 90 % of control
T/C (dose: 300.0 mg/kg/injection, schedule: Q01DX010 (ip), vehicle: other): 109 % of control
survivor count (dose: 300.0 mg/kg/injection, schedule: Q01DX Z (ip), vehicle: saline): 6 of 6
T/C (dose: 500.0 mg/kg/injection, schedule: Q01DX Z (ip), vehicle: saline): 103 % of control

O=P1(c2ccccc2)NC2CC(C(F)(F)F)CCC2S1 (stereo unspecified)
T/C [5]: 99 % of control
T/C [6]: 92 % of control
T/C [7]: 92 % of control

CCN(CCCl)C1c2ccccc2-c2ccccc21
T/C (dose: 12.5 mg/kg/injection, schedule: Q04DX002 (ip), vehicle: Klucel (hydroxypropylcellulose) (HPC)): 101 % of control
T/C (dose: 25.0 mg/kg/injection, schedule: Q04DX002 (ip), vehicle: Klucel (hydroxypropylcellulose) (HPC)): 104 % of control
T/C (dose: 50.0 mg/kg/injection, schedule: Q04DX002 (ip), vehicle: Klucel (hydroxypropylcellulose) (HPC)): 111 % of control

O=[N+]([O-])c1ccc(-c2ccccc2[N+](=O)[O-])c([N+](=O)[O-])c1
T/C (dose: 100.0 mg/kg/injection, schedule: Q01DX001 (ip), vehicle: carboxymethylcellulose (CMC)): 91 % of control
T/C (dose: 200.0 mg/kg/injection, schedule: Q01DX001 (ip), vehicle: carboxymethylcellulose (CMC)): 91 % of control
T/C (dose: 400.0 mg/kg/injection, schedule: Q01DX001 (ip), vehicle: carboxymethylcellulose (CMC)): 101 % of control

CCCCCCC(C)OP(O)OC(C)CCCCCC (stereo unspecified)
T/C (dose: 100.0 mg/kg/injection, schedule: Q04DX002 (ip), vehicle: Klucel (hydroxypropylcellulose) (HPC)): 98 % of control
T/C (dose: 200.0 mg/kg/injection, schedule: Q04DX002 (ip), vehicle: Klucel (hydroxypropylcellulose) (HPC)): 102 % of control
T/C (dose: 400.0 mg/kg/injection, schedule: Q04DX002 (ip), vehicle: Klucel (hydroxypropylcellulose) (HPC)): 96 % of control [2 of 3 alive]

COC(=O)C1(C)COP(=O)(Nc2ccccc2)OC1 (stereo unspecified)
survivor count [1]: 4 of 4
T/C [2]: 96 % of control
survivor count [3]: 4 of 4

CCOP(N)(=O)OCC
T/C (dose: 100.0 mg/kg/injection, schedule: Q01DX009 (ip), vehicle: saline): 96 % of control
T/C (dose: 100.0 mg/kg/injection, schedule: Q04DX003 (ip), vehicle: saline): 100 % of control
T/C (dose: 200.0 mg/kg/injection, schedule: Q01DX009 (ip), vehicle: saline): 94 % of control
T/C (dose: 200.0 mg/kg/injection, schedule: Q04DX003 (ip), vehicle: saline): 100 % of control
T/C (dose: 400.0 mg/kg/injection, schedule: Q01DX009 (ip), vehicle: saline): 91 % of control
T/C (dose: 400.0 mg/kg/injection, schedule: Q04DX003 (ip), vehicle: saline): 110 % of control
